Here are results for 4 molecules from patent US20250326862A1, “Antibody or Fragment Thereof Binding Specifically to Mertk, and Anti-Tumor Agent” (Chiome Bioscience Inc., priority 2021, published 2025).

These are yes or no findings as the source states them, for the method shown. Some results given as binding are weak or reduced against the parent protein; the word gives no strength.

Assay [1] deals with T1, human MerTK (R&D Systems) (human) (UniProt Q12866).
T1 sequence (looked up): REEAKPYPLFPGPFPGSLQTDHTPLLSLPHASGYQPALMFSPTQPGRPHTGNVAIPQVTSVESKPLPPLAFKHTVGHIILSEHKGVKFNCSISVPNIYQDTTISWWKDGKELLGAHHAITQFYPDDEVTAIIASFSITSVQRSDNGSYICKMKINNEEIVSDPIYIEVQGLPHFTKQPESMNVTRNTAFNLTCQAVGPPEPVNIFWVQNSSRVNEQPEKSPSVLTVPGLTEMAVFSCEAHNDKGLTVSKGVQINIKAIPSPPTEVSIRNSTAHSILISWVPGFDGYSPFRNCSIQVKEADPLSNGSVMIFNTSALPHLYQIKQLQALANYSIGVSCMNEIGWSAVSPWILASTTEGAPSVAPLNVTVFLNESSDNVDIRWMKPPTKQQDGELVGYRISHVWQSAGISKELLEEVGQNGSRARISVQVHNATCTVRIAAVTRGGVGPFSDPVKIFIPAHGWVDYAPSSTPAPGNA
The experiment in a line: ELISA for antigen binding activity, human MerTK. (In an ELISA, binding on a coated surface is turned into a signal by an enzyme label.)

The target in assay [2] is T1, human MerTK (R&D Systems) (human). The experiment in a line: ELISA for antigen binding activity, human MerTK; chimeric reference antibody.
For assay [3], the target named is cynomolgus MerTKECD-hFc (cynomolgus monkey). The experiment in a line: ELISA, antigen immobilised at 5 ug/ml, HRP-labelled secondary antibody.

B1: hz20A77_hIgG1LALA (antibody, V domains shown)
VH: QVQLVQSGAEVKKPGSSVKVSCKASGNTFTSYWMHWVRQAPGQGLEWIGNINPSSGGTNYNEKFKSRVTITVDKSTSTAYMELSSLRSEDTAVYYCARLNYYGFDGFAFWGQGTLVTVSS
VL: DIQMTQSPSSLSASVGDRVTITCKASQDINSYLSWFQQKPGKAPKTLIYRANRLVSGVPSRFSGSGSGTDYTLTISSLQPEDFATYYCLQYDEFPFTFGGGTKVEIK
Consider B1, for which, in assay [1], the binding entry is recorded as “binds”.

B2: m20A77_hIgG1LALA (antibody, V domains shown)
VH: QVQLQQPGTELVKPGASVKLSCRASGNTFTSYWMHWVKQRPGQGLEWIGNINPSSGGTNYNEKFKSKATLTVDKSSSTAYMQLSSLTSEDSAVYYCARLNYYGFDGFAFWGQGTLVTVSA
VL: DIKMTQSPSSMYASLGERVTITCKASQDINSYLSWFQQKPGKSPKTLIYRANRLVSGVPSRFSGSGSGQDYSLTISSLEYEDMGIYYCLQYDEFPFTFGSGTKLEIK
Take B2: in assay [2], the binding result is on record as “binds”.

B3: m20A77_mIgG1 (antibody, V domains shown)
VH: B2 VH
VL: B2 VL
notes: CDR-modified variant of 20A77, made recombinantly with mouse IgG1 heavy chain and kappa light chain constant regions
With B3, the binding result in assay [3] is recorded as “binds”.

B4: hz24A1_hIgG1LALA (antibody, V domains shown)
VH: EVQLVESGGGLVQPGGSLRLSCAASGFTFNVYDMHWVRQAPGKGLEWVARIRSKSSNYATNYADSVKDRFTISRDDAKNSLYLQMNSLRAEDTAVYYCVRDGSHYYYALDYWGQGTTVTVSS
VL: DIQMTQSPSSLSASVGDRVTITCRASQDINNYLNWYQQKPGKAPKLLIYYSSRLHSGVPSRFSGSGSGTDYTLTISSLQPEDFATYYCQQGKMFPWTFGGGTKVEIK
For B4, the binding entry in assay [1] is “binds”.
